Test results taken from patent publication US11419902B2, “Compositions comprising bacterial strains” (4D Pharma Research Limited, priority 2018, dated 2022).
At least one structure is not confirmed: it was looked up by name or label, or the drawing left a doubt.

Columns and labels:
[1] = test system: SKMEL31 melanoma cell line; assay: Soft agar growth of SKMEL31 cell line; format: cell-based; details: SKMEL31, added to MRx0029
Experimental: A mixture of 25 μL prewarmed (37° C.) 2× appropriate growth medium (EMEM for melanoma cell lines; DMEM high glucose for HT29) containing 20% FBS, 4 mM L-Glu, 2×NEAA, 0.6% sodium bicarbonate, 200 U/mL penicillin/streptomycin (Invitrogen), and 25 μL prewarmed (47° C.) 1.2% Noble Agar (A5431; Sigma Aldrich) were plated onto each well of a 96-well microplate to serve as a prelayer for the assay. Ten microliters of cell suspensions containing 0-2×10^3 cells were mixed with 25 μL 2× growth media and 35 μL 0.8% Noble Agar in a 96-well round-bottom polypropylene microplate and transferred to the 96-well microplate containing the solidified prelayers. […] They left to grow in the humidified 37° C. incubator with 5% CO2 for 1-2 weeks before soft agar growth was scored using the CytoSelect 96 well cell transformation assay (CBA-130; Cell Biolabs) according to the manufacturer's protocol. Cell growth was measured using a Tecan Infinite F200 Pro Series Multi-Well Plate Reader (Tecan Biosystems), with excitation at 485 nm and emission at 530 nm. […]
(§1) The effects of the following treatments were assessed on the SKMEL31 melanoma cell line (heterozygous for BRAF V600E): (1) MRx0029; (2) Vemurafenib (VEMU) in YFCA+ medium; (3) VEMU and MRx0029; (4) Azacytidine-C (Aza-c) in YFCA+ medium; (5) Aza-c and MRx0029; (6) VEMU, Aza-c and MRx0029.

[2] = test system: SKMEL31 melanoma cell line; assay: Clonogenic survival of SKMEL31 cell line; format: cell-based; details: SKMEL31, added to MRx0029
Experimental: Cells were trypsinized and 200 cells/well were seeded in 12-well plates. After 48 h cells were treated with the appropriate drugs in absence (YCFA+) or presence of 10% bacterial supernatant and were re-fed every three days. On day 21 after seeding, cells were fixed in ice-cold methanol and stained with Crystal Violet blue. […] were counted and survival fraction was calculated as number of colonies divided by the number of plated cells (plating efficiency) of treated divided by the plating efficiency of control.
as §1

In the case of `CCCS(=O)(=O)Nc1ccc(F)c(C(=O)c2c[nH]c3ncc(-c4ccc(Cl)cc4)cc23)c1F` [VEMU, Vemurafenib], the “effect on soft agar growth inhibition by MRx0029” value [1] is reported as “improved” and the “effect on clonogenic survival inhibition by MRx0029” value [2] is reported as “improved”.
